Laboratory results from patent publication US20240200044.
Where cells or extracts were used, other partners may take part.

Biological target: CBX8-directed TALE-omega K59E (synthetic construct) (UniProt Q56830)
Experiment: one hybrid
Conditions: little effect versus canonical; protein in cells; protein details: N-terminal FLAG-NLS, C-terminal RNAP omega; variant of CBX8 5'T site

## ATCAGGAGGGCTTCGGC (double strand) [CBX8 5'A site]
  binding result: binds

## CTCAGGAGGGCTTCGGC (double strand) [CBX8 5'C site]
  binding result: binds

## GTCAGGAGGGCTTCGGC (double strand) [CBX8 5'G site]
  binding result: binds
